Source: PubChem BioAssay AID1259331 (Drosophila RNAi Screening Center, 2017)
In all, the deposit lists about 3,100 reagents; shown is a random part of them. Of all reagents, 126 (4.1%) are marked active. 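Calls are per reagent; zinc was so toxic that few knock-downs lowered ATP further, so most hits raise ATP.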 The raw values are shown without normalisation. Unmarked entries are inactive. The numbers tell different reagents against one gene apart. Names joined by + are all predicted targets of the reagent. No sequences are given here. Not stated in the record: the amount of reagent.

Screen: 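Genes whose knock-down changes cell survival under toxic zinc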 (primary screen)
Cells: Drosophila S2R+ cells
Reagent: long dsRNA against Drosophila genes
Duration: 5 days (4 days knock-down, then 1 day zinc)
Conditions: zinc chloride at 15 mM final level for 1 day
Measurement: 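Total cellular ATP measured by luciferase luminescence as a viability proxy, turned into Z scores from three plate copies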
Scale: mean Z score: higher = more ATP than other wells, better survival under zinc; ATP luminescence: higher = more ATP, more viable cells
Active means: 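a reagent is called a hit when its Z score is above 1.5 or below -1.5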
Meaning of the calls: active = hit, ATP up or down; inactive = not a hit

gene knocked down | dsRNA no. | mean Z score | ATP luminescence, replicate 1 | ATP luminescence, replicate 2
PGRP-LD + Pmi | 1 | -0.305 | 29517 | 24319
CG14606 | 1 | -0.54 | 59860 | 51770
ttv | 1 | -0.26 | 28056 | 30383
ttv | 2 | -0.509 | 48046 | 50021
CG1275 | 1 | -0.3 | 25502 | 31759
Ktch | 1 | 0.205 | 66188 | 72791
Ktch | 2 | -0.094 | 47463 | 59826
Nox | 1 | -0.0109 | 65554 | 71591
Nox | 2 | -0.286 | 43976 | 44531
Nox | 3 | -0.00695 | 59157 | 58951
sut3 | 1 | 0.319 | 77714 | 80167
sut3 | 2 | 0.514 | 64679 | 63133
CG10353 | 1 | -0.31 | 55588 | 66360
CG10353 | 2 | 0.405 | 52127 | 53927
Or74a | 1 | -0.313 | 71569 | 55213
CG9467 | 1 | -0.141 | 43232 | 45560
CG42816 | 1 | -0.0119 | 76342 | 63684
spi | 1 | -0.192 | 51252 | 33010
spi | 2 | 0.0273 | 60803 | 62844
Or56a | 1 | -0.072 | 68468 | 70602
Or56a | 2 | -0.959 | 38599 | 36782
COX4 | 1 | -0.207 | 54420 | 52116
COX4 | 2 | -0.645 | 57151 | 42645
GABPI | 1 | -0.402 | 48081 | 53173
GABPI | 2 | -0.488 | 47076 | 43417
Arv1 | 1 | -0.526 | 57940 | 56705
Gr59c | 1 | -0.0344 | 53327 | 39162
crb | 1 | -0.318 | 43639 | 42251
crb | 2 | -0.243 | 46799 | 43041
CG1724 | 1 | -0.0711 | 43571 | 42405
CG1724 | 2 | -0.0227 | 52272 | 69975
CG15614 | 1 | -0.157 | 65794 | 68915
Gr97a | 1 | -0.0155 | 76479 | 61524
CG33116 | 1 | 2.12 (active) | 86273 | 86119
Flo1 | 1 | -0.326 | 27335 | 29933
Flo1 | 2 | -0.0483 | 55453 | 55413
CG8534 | 1 | -0.358 | 29736 | 53190
MFS16 | 1 | 0.15 | 53704 | 42885
MFS16 | 2 | 0.131 | 63650 | 57580

7 consecutive records already listed, quoted:
gene knocked down | dsRNA no. | mean Z score | ATP luminescence, replicate 1 | ATP luminescence, replicate 2
COX4 | 1 | -0.207 | 54420 | 52116
COX4 | 2 | -0.645 | 57151 | 42645
GABPI | 1 | -0.402 | 48081 | 53173
GABPI | 2 | -0.488 | 47076 | 43417
Arv1 | 1 | -0.526 | 57940 | 56705
Gr59c | 1 | -0.0344 | 53327 | 39162
crb | 1 | -0.318 | 43639 | 42251

Additional records:
gene knocked down | dsRNA no. | mean Z score | ATP luminescence, replicate 1 | ATP luminescence, replicate 2
CG31663 | 1 | -0.0678 | 39182 | 50748
CG31663 | 2 | 0.832 | 69773 | 66034
CG31663 | 3 | -0.348 | 41188 | 36507
CG31663 | 4 | -0.19 | 43691 | 42645
CG3156 | 1 | 0.0563 | 67835 | 42971
CG3156 | 2 | -0.0274 | 58420 | 65211
CG6293 | 1 | 1.52 (active) | 62673 | 63531
CG6293 | 2 | 0.124 | 67612 | 58906
Mpv17 | 1 | -0.784 | 45217 | 61054
CG2930 | 1 | -0.599 | 35958 | 39576
CG2930 | 2 | -0.516 | 44154 | 45731
Nrg | 1 | 0.437 | 77043 | 77044
Nrg | 2 | -0.0354 | 45594 | 46246
Nrg | 3 | 0.312 | 66051 | 61627
CG33181 | 1 | -0.541 | 52830 | 61421
CG33181 | 2 | -0.251 | 59963 | 55042
Ykt6 | 1 | 0.599 | 62604 | 66994
Lar | 1 | -0.34 | 36132 | 38445
Lar | 2 | -0.201 | 53207 | 53571
Lar | 3 | -0.47 | 43468 | 35650
CG12974 | 1 | -0.287 | 67234 | 58025
CG12974 | 2 | -0.216 | 60581 | 58488
fz3 | 1 | -0.54 | 57614 | 56551
fz3 | 2 | -0.534 | 54544 | 51749
CG42638 + Trpml | 1 | 0.0816 | 29753 | 33524
CG42638 + Trpml | 2 | -0.508 | 54339 | 53589
mthl10 | 1 | -0.224 | 66257 | 67715
mthl10 | 2 | 0.147 | 41839 | 45440
mthl10 | 3 | 0.0263 | 47821 | 47943
